Data reported in the supplement of paper PMC7238544.
Structures can show the parent of a compound that is named as a salt. ± gives the standard deviation of the averaged measurements. The list shows a part of the results. The data scatter; read single values as rough.

Legend:
[1] = tested on: hAMSC donor 1; assay: Hoechst total cell count ratio vs vehicle control; higher = more cells (less toxicity)
[2] = tested on: hAMSC donor 2; assay: as above
[3] = tested on: hAMSC donor 1; assay: transgenic luciferase activity (RLU/mg protein) fold change vs vehicle control (ratio); higher = more transgene expression
[4] = tested on: hAMSC donor 2; assay: as above
[5] = tested on: hAMSC donor 1; assay: transfection efficiency (EGFP+ cells / Hoechst count) fold change vs vehicle control (ratio); hAMSC are human adipose-derived mesenchymal stem cells given an EGFP-luciferase plasmid by lipofection; higher = enhanced transfection
[6] = tested on: hAMSC donor 2; assay: as above
[7] = priming compound concentration 0.2 µM
[8] = priming compound concentration 1.7 µM
[9] = priming compound concentration 13 µM

| Compound | Hoechst total cell count ratio [1, 7] | Hoechst total cell count ratio [1, 8] | Hoechst total cell count ratio [1, 9] | Hoechst total cell count ratio [2, 7] | Hoechst total cell count ratio [2, 8] | Hoechst total cell count ratio [2, 9] | transgenic luciferase activity [3, 8] | transgenic luciferase activity [3, 9] | transgenic luciferase activity [4, 7] | transgenic luciferase activity [4, 8] | transgenic luciferase activity [4, 9] | transfection efficiency [5, 7] | transfection efficiency [5, 8] | transfection efficiency [5, 9] | transfection efficiency [6, 7] | transfection efficiency [6, 8] | transfection efficiency [6, 9] | transgenic luciferase activity [3, 7] |
| --- | --- | --- | --- | --- | --- | --- | --- | --- | --- | --- | --- | --- | --- | --- | --- | --- | --- | --- |
| NS(=O)(=O)c1cc(C(=O)O)c(NCc2ccco2)cc1Cl [Furosemide] | 1.35 ± 0.19 | 1.11 ± 0.12 | 1.35 ± 0.16 | 1.07 ± 0.013 | 1.11 ± 0.051 | 1.18 ± 0.26 | 1.58 ± 1.3 | 0.361 ± 0.072 | 0.895 ± 0.12 | 0.528 ± 0.069 | 0.531 ± 0.023 | 0.74 ± 0.17 | 1.11 ± 0.041 | 1.18 ± 0.3 | 0.849 ± 0.048 | 1.3 ± 0.17 | 0.943 ± 0.087 | – |
| COc1c2occc2cc2ccc(=O)oc12 [Methoxsalen] | 1.22 ± 0.25 | 1.44 ± 0.043 | 1.5 ± 0.21 | 1.15 ± 0.033 | 0.919 ± 0.24 | 1.06 ± 0.059 | – | 0.868 ± 0.34 | 0.783 ± 0.35 | 1.05 ± 0.36 | – | 1.07 ± 0.41 | 1.07 ± 0.092 | 0.897 ± 0.071 | 0.996 ± 0.07 | 1.26 ± 0.21 | 0.888 ± 0.14 | 0.591 ± 0.32 |
| CC(=O)O[C@]1(C(C)=O)CC[C@H]2[C@@H]3C=C(C)C4=CC(=O)CC[C@]4(C)[C@H]3CC[C@@]21C [Megestrol acetate] | 1.45 ± 0.15 | 1.33 ± 0.061 | 1.43 ± 0.088 | 1.13 ± 0.17 | 1.31 ± 0.14 | 1.26 ± 0.26 | 1.53 ± 0.16 | 1.47 ± 0.67 | 0.474 ± 0.1 | 1.18 ± 0.18 | 1.4 ± 0.2 | 0.807 ± 0.28 | 1.74 ± 0.25 | 1.45 ± 0.44 | 0.8 ± 0.054 | 1.19 ± 0.098 | 1.29 ± 0.14 | – |
| CC1(C)O[C@@H]2C[C@H]3[C@@H]4CCC5=CC(=O)C=C[C@]5(C)[C@@]4(F)[C@@H](O)C[C@]3(C)[C@]2(C(=O)CO)O1 [Triamcinolone acetonide] | 1.56 ± 0.17 | 1.25 ± 0.092 | 1.56 ± 0.077 | 1.03 ± 0.098 | 0.853 ± 0.058 | 1.11 ± 0.24 | 11.7 ± 2.2 | 7.49 ± 1.3 | 5.49 ± 1.3 | 5.46 ± 0.33 | 4.77 ± 0.84 | 1.68 ± 0.45 | 3.06 ± 0.65 | 1.91 ± 0.37 | 1.67 ± 0.21 | 2.42 ± 0.27 | 1.87 ± 0.12 | – |
| N[C@@H](Cc1cc(I)c(Oc2cc(I)c(O)c(I)c2)c(I)c1)C(=O)O [L-Thyroxine] | 1.39 ± 0.031 | 1.01 ± 0.21 | 1.14 ± 0.14 | 0.829 ± 0.29 | 1.12 ± 0.38 | 1 ± 0.19 | 0.257 ± 0.17 | 1.29 ± 0.28 | – | 0.495 ± 0.057 | 0.24 ± 0.074 | 0.734 ± 0.24 | 1.11 ± 0.26 | 1.38 ± 0.32 | 1.16 ± 0.43 | 1.18 ± 0.025 | 1.18 ± 0.29 | – |
| CN1[C@@H]2CC[C@H]1C[C@@H](OC(c1ccccc1)c1ccccc1)C2 [Benztropine mesylate] | 1.1 ± 0.038 | 1.16 ± 0.09 | 1.44 ± 0.058 | 0.908 ± 0.25 | 1.16 ± 0.13 | 1.57 ± 0.21 | 1.16 ± 0.12 | – | 0.879 ± 0.061 | 0.979 ± 0.39 | 0.395 ± 0.048 | 1.16 ± 0.21 | 1.31 ± 0.55 | 0.899 ± 0.2 | 1.42 ± 0.31 | 1.35 ± 0.12 | 0.636 ± 0.098 | 0.719 ± 0.14 |
| CC1(C)O[C@@H]2C[C@H]3[C@@H]4C[C@H](F)C5=CC(=O)C=C[C@]5(C)[C@@]4(F)[C@@H](O)C[C@]3(C)[C@]2(C(=O)CO)O1 [Fluocinolone acetonide] | 1.1 ± 0.032 | 1.09 ± 0.075 | 0.899 ± 0.12 | 1.21 ± 0.018 | 1.1 ± 0.091 | 1.28 ± 0.14 | 7.71 ± 2.1 | – | 3.92 ± 0.81 | 6.09 ± 0.38 | 4.27 ± 0.49 | 2.74 ± 0.79 | 2.72 ± 0.9 | 2.06 ± 0.54 | 1.93 ± 0.31 | 2.41 ± 0.062 | 2.33 ± 0.5 | 5.75 ± 0.6 |
| CC[C@H]1OC(=O)[C@H](C)[C@@H](O[C@H]2C[C@@](C)(OC)[C@@H](O)[C@H](C)O2)[C@H](C)[C@@H](O[C@@H]2O[C@H](C)C[C@H](N(C)C)[C@H]2O)[C@](C)(O)C[C@@H](C)C(=O)[C@H](C)[C@@H](O)[C@]1(C)O [Erythromycin] | 1.14 ± 0.099 | 1.15 ± 0.046 | 1.3 ± 0.16 | 1.31 ± 0.23 | 1.24 ± 0.089 | 1.31 ± 0.027 | 0.285 ± 0.12 | 0.86 ± 0.45 | 0.771 ± 0.14 | 0.845 ± 0.094 | 0.367 ± 0.035 | 1.37 ± 0.41 | 1.32 ± 0.052 | 0.67 ± 0.14 | 1.21 ± 0.25 | 1.04 ± 0.11 | 0.757 ± 0.051 | – |
| CN1CCN(C2=Nc3ccccc3Oc3ccc(Cl)cc32)CC1 [Loxapine succinate] | 1.06 ± 0.1 | 1.16 ± 0.12 | 1.04 ± 0.19 | 0.735 ± 0.076 | 1.07 ± 0.048 | 1.38 ± 0.16 | 1.26 ± 0.9 | – | 0.758 ± 0.5 | 1.06 ± 0.28 | 0.598 ± 0.1 | 1.47 ± 0.68 | 1.15 ± 0.37 | 0.806 ± 0.42 | 1.49 ± 0.15 | 1.21 ± 0.27 | 0.964 ± 0.22 | 0.582 ± 0.24 |
| NC1CCN(c2cccc(Cl)n2)CC1 | 1.56 ± 0.28 | 1.06 ± 0.024 | 1.54 ± 0.16 | 1.15 ± 0.019 | 1.07 ± 0.2 | 1.3 ± 0.12 | – | 0.522 ± 0.35 | 0.635 ± 0.095 | 0.602 ± 0.11 | – | 1.18 ± 0.36 | 1.23 ± 0.095 | 1.01 ± 0.16 | 1.1 ± 0.05 | 1.56 ± 0.38 | 1.13 ± 0.27 | 0.743 ± 0.42 |
| Nc1ccn([C@@H]2O[C@H](CO)[C@@H](O)C2(F)F)c(=O)n1 [Gemcitabine hydrochloride] | 1.17 ± 0.092 | 1.23 ± 0.09 | 0.955 ± 0.11 | 1.36 ± 0.3 | 1.08 ± 0.035 | 0.756 ± 0.11 | 0.158 ± 0.038 | 0.794 ± 0.11 | 0.893 ± 0.047 | 0.888 ± 0.097 | 0.405 ± 0.17 | 0.942 ± 0.15 | 0.87 ± 0.043 | 1.27 ± 0.18 | 0.912 ± 0.081 | 1 ± 0.05 | 1.01 ± 0.14 | – |
| NC(=O)c1cnccn1 [Pyrazinamide] | 1.02 ± 0.2 | 1.04 ± 0.1 | 0.925 ± 0.073 | 1.14 ± 0.18 | 1.09 ± 0.096 | 1.33 ± 0.072 | 0.209 ± 0.07 | 1.63 ± 0.34 | 0.734 ± 0.089 | 0.739 ± 0.16 | 0.552 ± 0.11 | 1.42 ± 0.26 | 1.39 ± 0.49 | 1.2 ± 0.41 | 0.795 ± 0.18 | 1.22 ± 0.049 | 0.905 ± 0.19 | – |
| CC(=O)OCC(=O)[C@@]1(O)CC[C@H]2[C@@H]3CCC4=CC(=O)C=C[C@]4(C)[C@H]3[C@@H](O)C[C@@]21C [Prednisolone acetate] | 1.43 ± 0.29 | 1.4 ± 0.047 | 1.33 ± 0.12 | 1.19 ± 0.017 | 1.17 ± 0.035 | 1.3 ± 0.14 | 8.41 ± 4.2 | – | 1.1 ± 0.21 | 1.79 ± 0.63 | 2.51 ± 0.69 | 1.17 ± 0.37 | 0.963 ± 0.016 | 0.909 ± 0.13 | 1.35 ± 0.047 | 2.08 ± 0.14 | 1.8 ± 0.47 | 1.57 ± 0.18 |
| CN(C)c1ccc(O)c2c1C[C@H]1C[C@H]3[C@H](N(C)C)C(O)=C(C(N)=O)C(=O)[C@@]3(O)C(O)=C1C2=O [Minocycline hydrochloride] | 1.32 ± 0.15 | 1.17 ± 0.27 | 0.967 ± 0.055 | 0.889 ± 0.4 | 1.09 ± 0.41 | 0.976 ± 0.18 | 0.604 ± 0.42 | 1.41 ± 0.59 | – | 0.57 ± 0.14 | 0.431 ± 0.11 | 0.958 ± 0.17 | 1.04 ± 0.45 | 1.56 ± 0.36 | 1.44 ± 0.34 | 1.34 ± 0.46 | 1.3 ± 0.59 | – |

Part of the list above in order of heavy-atom count, rising.

| Compound | Hoechst total cell count ratio [1, 7] | Hoechst total cell count ratio [1, 8] | Hoechst total cell count ratio [1, 9] | Hoechst total cell count ratio [2, 7] | Hoechst total cell count ratio [2, 8] | Hoechst total cell count ratio [2, 9] | transgenic luciferase activity [3, 8] | transgenic luciferase activity [3, 9] | transgenic luciferase activity [4, 7] | transgenic luciferase activity [4, 8] | transgenic luciferase activity [4, 9] | transfection efficiency [5, 7] | transfection efficiency [5, 8] | transfection efficiency [5, 9] | transfection efficiency [6, 7] | transfection efficiency [6, 8] | transfection efficiency [6, 9] | transgenic luciferase activity [3, 7] |
| --- | --- | --- | --- | --- | --- | --- | --- | --- | --- | --- | --- | --- | --- | --- | --- | --- | --- | --- |
| NC1CCN(c2cccc(Cl)n2)CC1 | 1.56 ± 0.28 | 1.06 ± 0.024 | 1.54 ± 0.16 | 1.15 ± 0.019 | 1.07 ± 0.2 | 1.3 ± 0.12 | – | 0.522 ± 0.35 | 0.635 ± 0.095 | 0.602 ± 0.11 | – | 1.18 ± 0.36 | 1.23 ± 0.095 | 1.01 ± 0.16 | 1.1 ± 0.05 | 1.56 ± 0.38 | 1.13 ± 0.27 | 0.743 ± 0.42 |
| COc1c2occc2cc2ccc(=O)oc12 [Methoxsalen] | 1.22 ± 0.25 | 1.44 ± 0.043 | 1.5 ± 0.21 | 1.15 ± 0.033 | 0.919 ± 0.24 | 1.06 ± 0.059 | – | 0.868 ± 0.34 | 0.783 ± 0.35 | 1.05 ± 0.36 | – | 1.07 ± 0.41 | 1.07 ± 0.092 | 0.897 ± 0.071 | 0.996 ± 0.07 | 1.26 ± 0.21 | 0.888 ± 0.14 | 0.591 ± 0.32 |
| CN1[C@@H]2CC[C@H]1C[C@@H](OC(c1ccccc1)c1ccccc1)C2 [Benztropine mesylate] | 1.1 ± 0.038 | 1.16 ± 0.09 | 1.44 ± 0.058 | 0.908 ± 0.25 | 1.16 ± 0.13 | 1.57 ± 0.21 | 1.16 ± 0.12 | – | 0.879 ± 0.061 | 0.979 ± 0.39 | 0.395 ± 0.048 | 1.16 ± 0.21 | 1.31 ± 0.55 | 0.899 ± 0.2 | 1.42 ± 0.31 | 1.35 ± 0.12 | 0.636 ± 0.098 | 0.719 ± 0.14 |
| CC(=O)O[C@]1(C(C)=O)CC[C@H]2[C@@H]3C=C(C)C4=CC(=O)CC[C@]4(C)[C@H]3CC[C@@]21C [Megestrol acetate] | 1.45 ± 0.15 | 1.33 ± 0.061 | 1.43 ± 0.088 | 1.13 ± 0.17 | 1.31 ± 0.14 | 1.26 ± 0.26 | 1.53 ± 0.16 | 1.47 ± 0.67 | 0.474 ± 0.1 | 1.18 ± 0.18 | 1.4 ± 0.2 | 0.807 ± 0.28 | 1.74 ± 0.25 | 1.45 ± 0.44 | 0.8 ± 0.054 | 1.19 ± 0.098 | 1.29 ± 0.14 | – |
